Laboratory results taken from the supplement of paper PMC5407854, “Inhibitor of ppGalNAc-T3-mediated O-glycosylation blocks cancer cell invasiveness and lowers FGF23 levels” (eLife, 2017).
Some of the results follow. Most entries show no effect beyond the scatter of the controls.

Each molecule was assayed on ppGalNAc-T3 sensor (assay: T3 sensor activation Q score (MG/GFP ratio z-score vs DMSO controls) (SD units); higher = more sensor activation (inhibition of ppGalNAc-T3 glycosylation)). Conditions: HEK293 sensor cells; 10 µM; 6 h.
Experimental: (§1)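 Cells were treated with compound at 10 uM for 6 h, then MG/GFP ratio was read by flow cytometry (10,000 cells per well, duplicate wells). Q = (R - R_neg)/SD_neg relative to DMSO vehicle controls; the signal rises when the glycosyltransferase is inhibited.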

Compound	T3 sensor activation Q score
COc1cc(NS(=O)(=O)c2ccc(Br)cc2)c(OC)cc1Cl	0.63
COc1ccccc1N1C(=O)CC(N(C)Cc2ccccc2)C1=O (stereo not given)	-0.705
Cc1cccc(NS(=O)(=O)c2ccc(Cl)cc2)n1	-0.345
CCN(CC)C(=O)COc1ccc(Br)cc1Cl	0.425
c1ccc2c(Cn3ccnc3)c[nH]c2c1	0.9
CN(C)c1ccc(C2=NN(C=O)C(c3ccccc3)C2)cc1 (stereo not given)	-0.3
CCC(C)Sc1nc(O)c(C(C)CC)c(=O)[nH]1 (stereo not given)	0.28
CC(=O)Nc1cccc(NC(=O)C(Cl)Cl)c1	0.56
O=C(c1ccc(F)cc1)N1CCN(C(=O)c2ccc(F)cc2)CC1	-0.115
O=C(C1CCCO1)N1CCN(c2cccc(Cl)c2)CC1 (stereo not given)	0.42
Clc1ccc(OCc2nc3ccccc3[nH]2)c(Cl)c1	-0.16
Nc1cccc(C(=O)Nc2ccccc2Cl)c1	-0.35
COc1ccc(NS(=O)(=O)c2ccc(Cl)cc2)cc1	-0.47
O=C(c1ccc(Br)o1)N1CCCCCC1	0.415
CC(=O)C1=C(O)C(=O)N(C)C1c1ccc(F)cc1 (stereo not given)	0.17
CCOc1ccc(-c2cnc3ccccc3n2)cc1	1.15
Cc1occc1C(=O)NC(C)c1ccccc1 (stereo not given)	-0.605
NNc1nc(Nc2ccccc2)nc(N2CCCCC2)n1	0.57
CN1CCN(C/C=C/c2ccccc2[N+](=O)[O-])CC1	0.32
Cc1cc(C)c(C)c(OCCCCN2CCOCC2)c1	-0.24

Given in CSV form: three of the compounds above
Compound,T3 sensor activation Q score
CC(=O)Nc1cccc(NC(=O)C(Cl)Cl)c1,0.56
O=C(c1ccc(F)cc1)N1CCN(C(=O)c2ccc(F)cc2)CC1,-0.115
O=C(C1CCCO1)N1CCN(c2cccc(Cl)c2)CC1 (stereo not given),0.42

(list continues)

Compound	T3 sensor activation Q score
O=C(COc1ccc(Cl)cc1Cl)N1CCCC1	1.42
c1ccc2c(NC3CC3)nc(N3CCCC3)nc2c1	0.785
Cc1ccc2[nH]c3nc(NN)nnc3c2c1	-0.33
c1ccc(-c2ccccc2OCCn2ccnc2)cc1	-0.84
COc1ccc(CN2CCSCC2)c(C)c1C	0.285
CCN(CC)C(=O)C1CCCN(Cc2ccc(C)cc2C)C1 (stereo not given)	1.8
Cc1ccccc1NC1CC(C)Nc2c(C)cccc21 (stereo not given)	0.1
NNC(=O)c1sc2cccc(Cl)c2c1Cl	-0.46
CCOc1cc(N2CCOCC2)ccc1[N+](=O)[O-]	-0.095
CC1CCCCN1C(=O)c1ccc(C(=O)N2CCCCC2C)cc1 (stereo not given)	-0.38
NC(=O)N1CCN(C(=O)c2ccco2)CC1	0.5
CCc1ccc(CN2CCN(Cc3ccc4c(c3)OCO4)CC2)cc1	0.32
CCN(CC)S(=O)(=O)c1ccc(Oc2ccc([N+](=O)[O-])cc2)cc1	0.12
COc1cccc(OC)c1C(=O)Nc1cccc(Cl)c1	-0.835
O=C(O)c1ccc(N2CCCCC2)cc1	-0.03
CNC(=O)C(=O)Nc1c(C)cccc1C	0.455
CCN1CCC(N2CCN(c3ccccc3)CC2)CC1	0.42
NC(=O)CCSc1ccc(Cl)cc1	2.85
O=C(Nc1ccc(Nc2ccccc2)cc1)C1CC1c1ccccc1 (stereo not given)	-0.505
CN(C)c1nc2ccc(OCCN3CCCCC3)cc2s1	-0.46

Compounds listed so far with a furan ring, fused or not:
Compound	T3 sensor activation Q score
O=C(c1ccc(Br)o1)N1CCCCCC1	0.415
Cc1occc1C(=O)NC(C)c1ccccc1 (stereo not given)	-0.605
NC(=O)N1CCN(C(=O)c2ccco2)CC1	0.5

What follows are molecules tested on ppGalNAc-T2 sensor (assay: T2 sensor activation Q score (MG/GFP ratio z-score vs DMSO controls) (SD units); higher = more sensor activation (inhibition of ppGalNAc-T2 glycosylation)). Conditions: HEK293 sensor cells; 10 µM; 6 h.
Experimental: as §1

Compound	T2 sensor activation Q score
COc1cc(NS(=O)(=O)c2ccc(Br)cc2)c(OC)cc1Cl	0.56
COc1ccccc1N1C(=O)CC(N(C)Cc2ccccc2)C1=O (stereo not given)	-1.29
Cc1cccc(NS(=O)(=O)c2ccc(Cl)cc2)n1	-0.91
CCN(CC)C(=O)COc1ccc(Br)cc1Cl	0.02
c1ccc2c(Cn3ccnc3)c[nH]c2c1	0.965
CN(C)c1ccc(C2=NN(C=O)C(c3ccccc3)C2)cc1 (stereo not given)	-0.79
CCC(C)Sc1nc(O)c(C(C)CC)c(=O)[nH]1 (stereo not given)	0.25
CC(=O)Nc1cccc(NC(=O)C(Cl)Cl)c1	0.025
O=C(c1ccc(F)cc1)N1CCN(C(=O)c2ccc(F)cc2)CC1	-1.1
O=C(C1CCCO1)N1CCN(c2cccc(Cl)c2)CC1 (stereo not given)	1.05
Clc1ccc(OCc2nc3ccccc3[nH]2)c(Cl)c1	-0.265
Nc1cccc(C(=O)Nc2ccccc2Cl)c1	-0.525
COc1ccc(NS(=O)(=O)c2ccc(Cl)cc2)cc1	0.41
O=C(c1ccc(Br)o1)N1CCCCCC1	-0.875
CC(=O)C1=C(O)C(=O)N(C)C1c1ccc(F)cc1 (stereo not given)	-0.465
CCOc1ccc(-c2cnc3ccccc3n2)cc1	-1.04
Cc1occc1C(=O)NC(C)c1ccccc1 (stereo not given)	0.21
NNc1nc(Nc2ccccc2)nc(N2CCCCC2)n1	-0.305
CN1CCN(C/C=C/c2ccccc2[N+](=O)[O-])CC1	-0.83
Cc1cc(C)c(C)c(OCCCCN2CCOCC2)c1	-0.25

Compound	T2 sensor activation Q score
O=C(COc1ccc(Cl)cc1Cl)N1CCCC1	-0.175
c1ccc2c(NC3CC3)nc(N3CCCC3)nc2c1	-0.68
Cc1ccc2[nH]c3nc(NN)nnc3c2c1	-0.675
c1ccc(-c2ccccc2OCCn2ccnc2)cc1	0.365
COc1ccc(CN2CCSCC2)c(C)c1C	-0.67
CCN(CC)C(=O)C1CCCN(Cc2ccc(C)cc2C)C1 (stereo not given)	0.56
Cc1ccccc1NC1CC(C)Nc2c(C)cccc21 (stereo not given)	0.07
NNC(=O)c1sc2cccc(Cl)c2c1Cl	-0.26
CCOc1cc(N2CCOCC2)ccc1[N+](=O)[O-]	-0.665
CC1CCCCN1C(=O)c1ccc(C(=O)N2CCCCC2C)cc1 (stereo not given)	1.02
NC(=O)N1CCN(C(=O)c2ccco2)CC1	-0.24
CCc1ccc(CN2CCN(Cc3ccc4c(c3)OCO4)CC2)cc1	0.415
CCN(CC)S(=O)(=O)c1ccc(Oc2ccc([N+](=O)[O-])cc2)cc1	0.83
COc1cccc(OC)c1C(=O)Nc1cccc(Cl)c1	0.215
O=C(O)c1ccc(N2CCCCC2)cc1	0.23
CNC(=O)C(=O)Nc1c(C)cccc1C	-1.01
CCN1CCC(N2CCN(c3ccccc3)CC2)CC1	-0.2
NC(=O)CCSc1ccc(Cl)cc1	0.905
O=C(Nc1ccc(Nc2ccccc2)cc1)C1CC1c1ccccc1 (stereo not given)	1.16
CN(C)c1nc2ccc(OCCN3CCCCC3)cc2s1	1.18
